In article PMC5488456:
These are yes or no findings as the source states them, for the method shown. Binding seen in cells or lysates may run through a third protein. Some entries that bind do so weakly or less than the wild type.

Biological target: T1, ALDH1A3 G237R mutant protein (human) (UniProt P47895)
T1 sequence: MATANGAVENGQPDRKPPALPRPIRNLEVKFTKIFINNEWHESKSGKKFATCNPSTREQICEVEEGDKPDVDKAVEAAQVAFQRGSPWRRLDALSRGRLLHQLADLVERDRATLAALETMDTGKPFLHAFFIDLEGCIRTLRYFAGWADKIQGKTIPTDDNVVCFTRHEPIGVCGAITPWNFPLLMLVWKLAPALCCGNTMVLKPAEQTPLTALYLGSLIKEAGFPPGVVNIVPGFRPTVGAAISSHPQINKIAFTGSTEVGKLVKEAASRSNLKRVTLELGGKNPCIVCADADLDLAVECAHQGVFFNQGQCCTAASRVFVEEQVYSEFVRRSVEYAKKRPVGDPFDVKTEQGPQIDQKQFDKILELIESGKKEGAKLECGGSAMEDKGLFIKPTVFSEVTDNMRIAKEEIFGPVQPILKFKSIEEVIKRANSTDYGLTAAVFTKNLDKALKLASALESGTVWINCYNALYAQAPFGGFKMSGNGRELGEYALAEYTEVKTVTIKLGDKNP
Assay: co-IP; 293T cells transfected with HA- and FLAG-tagged ALDH1A3 constructs; extracted proteins incubated with 3 ug HA antibody, protein A+G agarose beads; immunoblot with anti-FLAG antibodies

B1: ALDH1A3 R96H mutant protein (enzyme, UniProt P47895 1-512)
chain: MATANGAVENGQPDRKPPALPRPIRNLEVKFTKIFINNEWHESKSGKKFATCNPSTREQICEVEEGDKPDVDKAVEAAQVAFQRGSPWRRLDALSHGRLLHQLADLVERDRATLAALETMDTGKPFLHAFFIDLEGCIRTLRYFAGWADKIQGKTIPTDDNVVCFTRHEPIGVCGAITPWNFPLLMLVWKLAPALCCGNTMVLKPAEQTPLTALYLGSLIKEAGFPPGVVNIVPGFGPTVGAAISSHPQINKIAFTGSTEVGKLVKEAASRSNLKRVTLELGGKNPCIVCADADLDLAVECAHQGVFFNQGQCCTAASRVFVEEQVYSEFVRRSVEYAKKRPVGDPFDVKTEQGPQIDQKQFDKILELIESGKKEGAKLECGGSAMEDKGLFIKPTVFSEVTDNMRIAKEEIFGPVQPILKFKSIEEVIKRANSTDYGLTAAVFTKNLDKALKLASALESGTVWINCYNALYAQAPFGGFKMSGNGRELGEYALAEYTEVKTVTIKLGDKNP
Q: Which binding does the source give for B1 here?
A: The binding was “binds weakly”.
